Four substances from patent EP4035684A1 (AF Chemical LLC, priority 2019, dated 2022) can be followed below.

Strings that start with PEPTIDE1 are HELM notation: dots part the residues, brackets hold end groups and non-standard residues.

A short description of this data set: general procedure: peptide synthesis; EDC/ODHBt/NMM; DIC/HOBt. The note with it: conjugation step.

Consider “PEPTIDE1{[Mu].H.S.S.K.L.Q.L.[AF-propyl-NH]}$$$$V2.0”, for which the conjugation yield is given as 21%.

Substance “PEPTIDE1{[ac].[Hyp].S.S.[Chg].Q.S.S.P.[AF-propyl-O]}$$$$V2.0” returned a conjugation yield of 69%.

For the substance “PEPTIDE1{[ac].[Hyp].S.S.[Chg].Q.S.S.P.[IlludinM-O]}$$$$V2.0”, the conjugation yield came to 33%. The “crude HPLC purity” value (HPLC) turned out to be 70%.

For “PEPTIDE1{[ac].[Hyp].S.S.[Chg].Q.S.S.P.[TBS-IlludinS-O]}$$$$V2.0”, the conjugation yield was determined as 47%.
